Results deposited as PubChem BioAssay AID1508588 (Peter MacCallum Cancer Centre, 2020).
Test: 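Knock-downs boosting vemurafenib effects on melanoma cell growth or lactate release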 (primary screen). System: human WM266.4 melanoma cells (BRAF V600 mutant). Reagent: siRNA pool against human genes, 40 nM. Timing: 96 h from transfection to read-out. Conditions: vemurafenib 300 nM (about IC25), added 48 h after transfection, for 48 h; comparison arm got DMSO vehicle only. Detection: 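Ratios to non-targeting siRNA for cell gain, counted as DAPI nuclei after minus before drug and averaged over two replicates, and for absorbance-read medium lactate per cell; both binned into fold-change classes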. Reading the numbers: cell gain with vemurafenib: higher = more cell gain than with non-targeting siRNA; lactate per cell with vemurafenib: higher = more lactate made per cell. Rule for the call: 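a knock-down counts as enhancing when its fold-change classes with vehicle and with vemurafenib, taken together, show a stronger drug effect on cell gain or lactate per cell; exact class pairs not stated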. Calls: active = enhances vemurafenib effect; inactive = no enhancement seen.
Shown is a random part of about 18,000 deposited reagents. 790 of all reagents (4.4%) count as active. 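Calls rest on a combination of fold-change classes in drug and vehicle arms, not all shown here.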 Entries without a mark were called inactive.

MYBL2 — cell gain with vemurafenib = 0.45; lactate per cell with vemurafenib = 2.19
OR2B6 — cell gain with vemurafenib = 0.3; lactate per cell with vemurafenib = 2.12
DPF1 — cell gain with vemurafenib = 0.58; lactate per cell with vemurafenib = 1.73
G6PC1 — cell gain with vemurafenib = 0.65; lactate per cell with vemurafenib = 0.27
SLC25A38 — cell gain with vemurafenib = 0.94; lactate per cell with vemurafenib = 1.11
SLC38A4 — cell gain with vemurafenib = 0.63; lactate per cell with vemurafenib = 0.84
TMCO6 — cell gain with vemurafenib = 0.46; lactate per cell with vemurafenib = 0.88
TRIM60 — cell gain with vemurafenib = 1.12; lactate per cell with vemurafenib = 0.66
EXTL1 — cell gain with vemurafenib = 0.63; lactate per cell with vemurafenib = 0.97
ALDH8A1 — cell gain with vemurafenib = 0.67; lactate per cell with vemurafenib = 0.37
LCN12 — cell gain with vemurafenib = 1.09; lactate per cell with vemurafenib = 0.68
PHOX2B — cell gain with vemurafenib = 1.12; lactate per cell with vemurafenib = 0.57
HDAC11 — cell gain with vemurafenib = 0.7; lactate per cell with vemurafenib = 0.88
SRSF11 — cell gain with vemurafenib = 0.16; lactate per cell with vemurafenib = 1.64
ALG6 — cell gain with vemurafenib = 0.47; lactate per cell with vemurafenib = 0.6
ZNF676 — cell gain with vemurafenib = 0.1; lactate per cell with vemurafenib = 0.93
TMED6 — cell gain with vemurafenib = 1; lactate per cell with vemurafenib = 0.46
NAGA — cell gain with vemurafenib = 0.42; lactate per cell with vemurafenib = 1.46
ROBO4 — cell gain with vemurafenib = 0.43; lactate per cell with vemurafenib = 1.37
LRRC71 — cell gain with vemurafenib = 0.15; lactate per cell with vemurafenib = 2.02
SRSF12 — cell gain with vemurafenib = 0.7; lactate per cell with vemurafenib = 0.92
COLEC12 — cell gain with vemurafenib = 1; lactate per cell with vemurafenib = 0.72
PCDHGA4 — cell gain with vemurafenib = 0.72; lactate per cell with vemurafenib = 0.5
HDAC4 — cell gain with vemurafenib = 0.12; lactate per cell with vemurafenib = 1.69
C12orf60 — cell gain with vemurafenib = 0.7; lactate per cell with vemurafenib = 1.21
ESCO2 — cell gain with vemurafenib = 0.71; lactate per cell with vemurafenib = 0.38
SLC71A2 — cell gain with vemurafenib = 0.72; lactate per cell with vemurafenib = 0.5

3 neighbouring reagents from above, quoted:
EXTL1 — cell gain with vemurafenib = 0.63; lactate per cell with vemurafenib = 0.97
ALDH8A1 — cell gain with vemurafenib = 0.67; lactate per cell with vemurafenib = 0.37
LCN12 — cell gain with vemurafenib = 1.09; lactate per cell with vemurafenib = 0.68
